Binding data for one substance are collected here from doi:10.1101/2022.10.05.511050 (bioRxiv, 2022).

Protein sequences, listed by entry. Tags and fused reporters are not part of them.
UniProt Q8R4B8: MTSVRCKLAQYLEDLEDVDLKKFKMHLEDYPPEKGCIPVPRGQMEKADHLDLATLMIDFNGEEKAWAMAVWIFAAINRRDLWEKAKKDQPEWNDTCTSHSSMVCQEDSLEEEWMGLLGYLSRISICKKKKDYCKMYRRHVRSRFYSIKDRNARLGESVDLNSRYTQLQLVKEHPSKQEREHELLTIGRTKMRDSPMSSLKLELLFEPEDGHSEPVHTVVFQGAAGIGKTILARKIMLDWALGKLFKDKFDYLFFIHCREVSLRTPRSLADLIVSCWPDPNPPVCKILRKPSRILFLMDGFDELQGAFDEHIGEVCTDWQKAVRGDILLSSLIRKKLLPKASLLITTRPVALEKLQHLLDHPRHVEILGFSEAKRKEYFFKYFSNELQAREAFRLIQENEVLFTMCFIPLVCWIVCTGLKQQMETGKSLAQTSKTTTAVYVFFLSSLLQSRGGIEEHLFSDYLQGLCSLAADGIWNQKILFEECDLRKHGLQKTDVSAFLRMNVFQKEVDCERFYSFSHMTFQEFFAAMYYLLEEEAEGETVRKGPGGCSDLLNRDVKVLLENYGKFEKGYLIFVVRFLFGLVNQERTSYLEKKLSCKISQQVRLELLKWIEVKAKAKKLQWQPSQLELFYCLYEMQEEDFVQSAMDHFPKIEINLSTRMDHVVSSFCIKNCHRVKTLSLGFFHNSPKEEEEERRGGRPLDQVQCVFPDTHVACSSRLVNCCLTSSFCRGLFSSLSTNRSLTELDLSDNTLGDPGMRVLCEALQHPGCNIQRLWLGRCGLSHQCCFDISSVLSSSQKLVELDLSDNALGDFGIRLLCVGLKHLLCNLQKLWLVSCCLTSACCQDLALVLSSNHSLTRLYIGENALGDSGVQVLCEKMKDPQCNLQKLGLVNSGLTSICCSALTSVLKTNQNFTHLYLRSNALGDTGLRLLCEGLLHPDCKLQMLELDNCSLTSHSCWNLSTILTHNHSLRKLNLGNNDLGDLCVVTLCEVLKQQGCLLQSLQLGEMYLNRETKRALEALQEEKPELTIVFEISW
UniProt Q80X73: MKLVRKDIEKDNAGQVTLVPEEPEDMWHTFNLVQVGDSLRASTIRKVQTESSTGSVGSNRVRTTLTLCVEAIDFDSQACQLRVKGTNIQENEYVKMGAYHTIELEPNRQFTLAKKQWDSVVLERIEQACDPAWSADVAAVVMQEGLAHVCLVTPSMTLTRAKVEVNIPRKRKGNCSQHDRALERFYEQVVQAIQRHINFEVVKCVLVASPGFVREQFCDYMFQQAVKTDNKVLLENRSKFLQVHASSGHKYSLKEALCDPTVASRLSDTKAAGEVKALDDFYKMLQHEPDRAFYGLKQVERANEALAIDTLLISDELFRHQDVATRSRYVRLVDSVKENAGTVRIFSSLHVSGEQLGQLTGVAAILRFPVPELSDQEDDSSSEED

Results are given in words; binding and its absence hold for the method and conditions named. Binding seen in cells or lysates may run through a third protein. A yes stands for co-enrichment or nearness to the bait. Other partners may have been found.

This test deals with Flag-NLRP3 (reconstituted in J774 cells) (UniProt Q8R4B8). The test is described as follows: affinity purification with mass spectrometry.

With “endogenous PELO (protein pelota homolog) (from UniProt Q80X73 1-385)”, the binding entry is “binds”.
